Results on one substance are retold here after patent US10314917B2 (The Brigham and Women's Hospital, Inc., priority 2014, dated 2019).

The data set can be described thus: peptide synthesis. Conditions: conjugation step.

In turn, H-KLWVLPKGGGC-NH2 showed a conjugation yield of 67%.
